Laboratory results reported in the supplement of paper PMC10849652.
The other results are listed elsewhere or left out. Residues, ends and D or L forms follow the SMILES beside them. *: point of attachment. Cbz = O=C(OCc1ccccc1)*

Amino acid sequences for entries named in this document (tags omitted). A change or cut given only in a name is not applied to a line headed by its entry.
UniProt O14727: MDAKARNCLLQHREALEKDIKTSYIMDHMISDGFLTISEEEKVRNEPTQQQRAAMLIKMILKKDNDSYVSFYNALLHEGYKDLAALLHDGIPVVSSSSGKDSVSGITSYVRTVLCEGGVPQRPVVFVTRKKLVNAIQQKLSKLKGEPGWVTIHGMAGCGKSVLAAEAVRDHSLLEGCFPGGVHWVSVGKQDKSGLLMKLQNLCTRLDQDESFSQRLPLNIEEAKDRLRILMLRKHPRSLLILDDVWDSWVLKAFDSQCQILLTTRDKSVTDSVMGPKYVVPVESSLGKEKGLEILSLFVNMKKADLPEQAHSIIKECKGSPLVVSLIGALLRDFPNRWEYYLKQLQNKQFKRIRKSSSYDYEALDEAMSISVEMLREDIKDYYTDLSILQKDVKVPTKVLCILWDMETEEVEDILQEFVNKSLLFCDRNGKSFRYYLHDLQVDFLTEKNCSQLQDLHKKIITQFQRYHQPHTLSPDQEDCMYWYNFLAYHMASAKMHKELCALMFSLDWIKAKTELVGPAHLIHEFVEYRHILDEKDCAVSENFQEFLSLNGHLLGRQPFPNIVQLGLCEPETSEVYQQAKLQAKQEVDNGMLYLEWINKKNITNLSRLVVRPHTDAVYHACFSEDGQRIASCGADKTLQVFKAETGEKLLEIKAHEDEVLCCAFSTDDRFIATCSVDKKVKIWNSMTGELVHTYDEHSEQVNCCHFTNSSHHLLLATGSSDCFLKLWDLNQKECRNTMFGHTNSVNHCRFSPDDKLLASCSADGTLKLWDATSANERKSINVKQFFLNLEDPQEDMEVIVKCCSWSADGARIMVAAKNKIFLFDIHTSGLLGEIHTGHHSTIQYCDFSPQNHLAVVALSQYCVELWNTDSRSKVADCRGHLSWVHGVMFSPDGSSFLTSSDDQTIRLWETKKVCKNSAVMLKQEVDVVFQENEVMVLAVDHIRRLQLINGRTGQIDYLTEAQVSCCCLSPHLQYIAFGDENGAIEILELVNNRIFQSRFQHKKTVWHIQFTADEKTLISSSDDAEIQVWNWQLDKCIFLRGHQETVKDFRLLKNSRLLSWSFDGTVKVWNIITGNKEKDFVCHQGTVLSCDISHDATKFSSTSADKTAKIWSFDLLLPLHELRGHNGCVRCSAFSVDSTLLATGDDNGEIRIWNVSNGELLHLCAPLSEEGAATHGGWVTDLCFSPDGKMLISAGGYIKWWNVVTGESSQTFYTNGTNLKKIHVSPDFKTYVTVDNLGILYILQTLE
UniProt O15033: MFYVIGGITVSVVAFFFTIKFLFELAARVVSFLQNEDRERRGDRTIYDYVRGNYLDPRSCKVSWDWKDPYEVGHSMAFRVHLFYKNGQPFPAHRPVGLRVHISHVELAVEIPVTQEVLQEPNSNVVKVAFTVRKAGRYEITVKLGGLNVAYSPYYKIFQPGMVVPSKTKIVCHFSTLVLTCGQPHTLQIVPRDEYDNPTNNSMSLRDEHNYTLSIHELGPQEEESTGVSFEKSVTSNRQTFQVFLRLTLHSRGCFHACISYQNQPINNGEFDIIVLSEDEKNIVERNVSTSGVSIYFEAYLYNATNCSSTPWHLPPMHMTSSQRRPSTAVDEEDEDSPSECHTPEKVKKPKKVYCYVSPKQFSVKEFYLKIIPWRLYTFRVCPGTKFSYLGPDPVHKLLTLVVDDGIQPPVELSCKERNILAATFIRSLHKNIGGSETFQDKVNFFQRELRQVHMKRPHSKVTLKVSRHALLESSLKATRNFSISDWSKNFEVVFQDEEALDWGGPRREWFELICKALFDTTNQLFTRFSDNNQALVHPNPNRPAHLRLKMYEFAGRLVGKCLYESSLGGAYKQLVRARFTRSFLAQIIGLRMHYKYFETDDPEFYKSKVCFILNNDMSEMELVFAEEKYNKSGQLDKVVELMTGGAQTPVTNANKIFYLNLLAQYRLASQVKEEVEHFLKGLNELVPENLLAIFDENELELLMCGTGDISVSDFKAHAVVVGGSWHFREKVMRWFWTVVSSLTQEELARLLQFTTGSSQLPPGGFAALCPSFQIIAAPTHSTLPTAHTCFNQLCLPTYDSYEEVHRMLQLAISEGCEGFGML
UniProt Q8N6S4: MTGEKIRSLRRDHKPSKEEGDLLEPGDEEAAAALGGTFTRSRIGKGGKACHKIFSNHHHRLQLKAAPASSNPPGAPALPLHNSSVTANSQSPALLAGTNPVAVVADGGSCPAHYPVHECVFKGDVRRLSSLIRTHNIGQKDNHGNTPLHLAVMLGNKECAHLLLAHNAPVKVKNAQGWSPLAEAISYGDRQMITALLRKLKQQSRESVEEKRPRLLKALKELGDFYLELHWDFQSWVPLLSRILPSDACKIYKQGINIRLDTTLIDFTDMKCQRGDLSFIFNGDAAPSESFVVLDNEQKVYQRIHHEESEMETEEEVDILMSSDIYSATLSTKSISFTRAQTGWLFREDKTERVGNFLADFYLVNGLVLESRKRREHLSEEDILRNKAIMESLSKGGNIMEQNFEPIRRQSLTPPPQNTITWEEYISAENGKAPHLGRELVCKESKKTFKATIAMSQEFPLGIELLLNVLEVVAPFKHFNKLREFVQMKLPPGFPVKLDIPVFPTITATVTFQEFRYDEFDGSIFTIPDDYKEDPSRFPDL
UniProt P02656: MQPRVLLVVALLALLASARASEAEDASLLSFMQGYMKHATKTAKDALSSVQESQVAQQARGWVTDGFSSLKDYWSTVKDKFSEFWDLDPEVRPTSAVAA
UniProt Q86W74: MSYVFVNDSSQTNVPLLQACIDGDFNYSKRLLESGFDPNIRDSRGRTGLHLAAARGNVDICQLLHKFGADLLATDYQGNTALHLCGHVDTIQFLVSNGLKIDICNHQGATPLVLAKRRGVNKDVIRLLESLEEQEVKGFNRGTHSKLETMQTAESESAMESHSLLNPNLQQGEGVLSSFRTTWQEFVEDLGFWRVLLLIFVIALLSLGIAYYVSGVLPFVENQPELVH
UniProt P42331: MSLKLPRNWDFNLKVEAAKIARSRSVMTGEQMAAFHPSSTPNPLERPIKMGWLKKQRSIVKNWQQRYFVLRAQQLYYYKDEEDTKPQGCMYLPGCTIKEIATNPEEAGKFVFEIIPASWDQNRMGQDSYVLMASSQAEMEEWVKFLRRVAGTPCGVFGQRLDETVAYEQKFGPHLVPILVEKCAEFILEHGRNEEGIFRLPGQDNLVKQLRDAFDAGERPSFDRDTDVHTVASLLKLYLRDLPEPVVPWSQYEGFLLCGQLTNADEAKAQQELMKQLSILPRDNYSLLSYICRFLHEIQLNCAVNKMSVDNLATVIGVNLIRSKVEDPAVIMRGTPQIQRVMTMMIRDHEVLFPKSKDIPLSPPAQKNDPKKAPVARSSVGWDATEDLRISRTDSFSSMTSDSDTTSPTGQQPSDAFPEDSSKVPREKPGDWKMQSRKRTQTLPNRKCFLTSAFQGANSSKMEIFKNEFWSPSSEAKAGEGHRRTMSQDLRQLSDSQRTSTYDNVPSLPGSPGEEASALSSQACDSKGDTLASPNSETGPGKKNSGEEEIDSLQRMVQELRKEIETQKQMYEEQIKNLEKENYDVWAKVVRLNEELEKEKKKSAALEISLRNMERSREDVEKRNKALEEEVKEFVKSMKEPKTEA
UniProt P05067, whole entry, looked up: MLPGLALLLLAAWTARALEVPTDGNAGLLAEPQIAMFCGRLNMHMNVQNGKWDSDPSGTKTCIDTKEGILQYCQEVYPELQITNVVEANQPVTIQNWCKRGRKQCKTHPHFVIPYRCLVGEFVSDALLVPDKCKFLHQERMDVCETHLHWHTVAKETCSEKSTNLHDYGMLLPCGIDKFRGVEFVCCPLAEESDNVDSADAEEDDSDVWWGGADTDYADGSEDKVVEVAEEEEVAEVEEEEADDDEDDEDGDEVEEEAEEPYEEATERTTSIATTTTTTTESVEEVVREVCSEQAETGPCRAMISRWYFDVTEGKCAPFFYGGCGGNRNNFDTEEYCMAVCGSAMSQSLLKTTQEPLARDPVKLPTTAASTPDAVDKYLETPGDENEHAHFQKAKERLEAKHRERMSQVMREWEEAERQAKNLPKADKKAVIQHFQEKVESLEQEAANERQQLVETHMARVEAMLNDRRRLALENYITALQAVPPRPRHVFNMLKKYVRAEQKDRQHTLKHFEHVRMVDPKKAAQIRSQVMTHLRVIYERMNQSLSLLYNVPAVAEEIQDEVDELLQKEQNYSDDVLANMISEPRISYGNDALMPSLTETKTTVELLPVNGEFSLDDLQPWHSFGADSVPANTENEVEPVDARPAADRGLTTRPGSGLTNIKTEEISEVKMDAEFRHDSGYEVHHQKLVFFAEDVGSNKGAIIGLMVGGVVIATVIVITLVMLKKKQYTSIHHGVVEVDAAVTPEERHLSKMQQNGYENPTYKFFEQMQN
UniProt Q86XL3: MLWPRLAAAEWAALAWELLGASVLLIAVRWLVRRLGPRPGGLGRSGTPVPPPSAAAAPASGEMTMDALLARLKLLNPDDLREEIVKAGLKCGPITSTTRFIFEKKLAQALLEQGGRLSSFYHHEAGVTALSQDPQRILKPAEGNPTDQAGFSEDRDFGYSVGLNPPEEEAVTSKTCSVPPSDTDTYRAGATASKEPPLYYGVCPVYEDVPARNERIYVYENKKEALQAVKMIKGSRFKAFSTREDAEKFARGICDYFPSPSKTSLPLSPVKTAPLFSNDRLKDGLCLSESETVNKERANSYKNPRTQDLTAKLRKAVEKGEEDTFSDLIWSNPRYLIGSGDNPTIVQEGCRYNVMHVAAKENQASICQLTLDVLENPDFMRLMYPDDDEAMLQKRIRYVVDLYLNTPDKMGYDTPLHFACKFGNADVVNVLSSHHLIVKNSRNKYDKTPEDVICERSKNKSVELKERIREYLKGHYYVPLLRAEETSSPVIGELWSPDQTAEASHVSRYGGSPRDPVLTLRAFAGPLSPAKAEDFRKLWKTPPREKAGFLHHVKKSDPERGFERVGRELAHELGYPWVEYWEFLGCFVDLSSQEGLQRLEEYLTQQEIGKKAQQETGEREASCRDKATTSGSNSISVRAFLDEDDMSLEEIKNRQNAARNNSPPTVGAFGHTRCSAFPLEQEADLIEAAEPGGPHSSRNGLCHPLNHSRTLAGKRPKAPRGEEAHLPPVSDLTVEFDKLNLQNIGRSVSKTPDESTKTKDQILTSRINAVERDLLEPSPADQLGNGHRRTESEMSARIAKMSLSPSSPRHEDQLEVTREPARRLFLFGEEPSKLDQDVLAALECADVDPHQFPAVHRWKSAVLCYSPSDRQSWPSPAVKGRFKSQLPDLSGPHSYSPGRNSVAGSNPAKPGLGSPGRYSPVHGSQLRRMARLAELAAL
UniProt P02655: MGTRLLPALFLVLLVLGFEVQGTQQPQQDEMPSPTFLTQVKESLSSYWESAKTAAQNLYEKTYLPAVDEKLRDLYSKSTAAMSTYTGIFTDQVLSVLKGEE
UniProt Q9UH17: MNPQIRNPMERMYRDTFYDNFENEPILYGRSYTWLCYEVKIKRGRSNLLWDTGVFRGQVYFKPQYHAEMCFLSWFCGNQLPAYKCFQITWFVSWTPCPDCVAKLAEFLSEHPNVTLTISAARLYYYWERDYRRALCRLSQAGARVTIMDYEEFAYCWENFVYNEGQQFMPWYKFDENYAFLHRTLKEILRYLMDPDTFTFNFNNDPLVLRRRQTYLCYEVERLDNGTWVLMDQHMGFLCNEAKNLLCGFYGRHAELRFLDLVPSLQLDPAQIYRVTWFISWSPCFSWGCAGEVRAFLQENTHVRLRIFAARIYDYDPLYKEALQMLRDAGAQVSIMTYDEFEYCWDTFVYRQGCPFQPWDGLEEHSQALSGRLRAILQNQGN
UniProt Q99767, whole entry, looked up: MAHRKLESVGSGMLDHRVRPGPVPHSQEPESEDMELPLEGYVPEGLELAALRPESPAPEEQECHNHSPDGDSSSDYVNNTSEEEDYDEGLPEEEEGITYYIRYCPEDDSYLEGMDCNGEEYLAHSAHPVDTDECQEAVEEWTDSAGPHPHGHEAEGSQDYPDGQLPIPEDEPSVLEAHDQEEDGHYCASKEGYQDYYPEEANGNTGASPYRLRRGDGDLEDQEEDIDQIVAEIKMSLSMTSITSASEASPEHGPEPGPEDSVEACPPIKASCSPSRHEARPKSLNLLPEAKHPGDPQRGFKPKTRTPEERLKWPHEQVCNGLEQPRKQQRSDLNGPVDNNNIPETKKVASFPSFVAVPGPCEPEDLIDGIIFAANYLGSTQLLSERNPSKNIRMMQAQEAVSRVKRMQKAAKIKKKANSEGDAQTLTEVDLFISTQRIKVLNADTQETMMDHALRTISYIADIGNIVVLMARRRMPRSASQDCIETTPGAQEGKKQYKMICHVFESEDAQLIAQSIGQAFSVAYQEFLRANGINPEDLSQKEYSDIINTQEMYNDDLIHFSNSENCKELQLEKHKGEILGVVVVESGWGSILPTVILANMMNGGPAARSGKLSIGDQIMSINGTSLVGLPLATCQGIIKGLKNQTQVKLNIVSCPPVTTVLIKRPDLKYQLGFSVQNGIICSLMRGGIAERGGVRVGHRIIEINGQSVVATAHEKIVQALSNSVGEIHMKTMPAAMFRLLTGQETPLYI

Legend:
Experiment in all cases: log2 fold change, soluble protein after heating vs DMSO (PISA); higher = thermal stabilisation; K562 cells, 10 uM, 30 min; active = over 0.2 and 3.5 SD of the protein, either way, in both replicates (recomputed)
IRAK-1-4 Inhibitor I = compound: C1COCCN1CCN2C3=CC=CC=C3N=C2NC(=O)C4=CC(=CC=C4)[N+](=O)[O-] [IRAK-1-4 Inhibitor I]
How it was run: (§1)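 Values are thermal stability changes relative to control samples and are taken from duplicates. They are stated as log2 fold changes. Before quantification by TMTpro 16plex LC-MS/MS with equalised channel sums, K562 cells at 2×10^6 cells/mL were treated with 10 μM compound for 30 min, heated in aliquots for 3 min across 48°C-58°C, pooled, extracted in PBS with 0.5% NP-40 at 4°C, and centrifuged at 21,000xg for 90 min to give the soluble supernatant.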

ibrutinib = compound: C=CC(=O)N1CCC[C@@H](n2nc(-c3ccc(Oc4ccccc4)cc3)c3c(N)ncnc32)C1 [ibrutinib]
How it was run: as §1

[1] = compound: CC(C)(O)CC(=O)NCCn1ccc2ncnc(Nc3ccc(Oc4cccc(C(F)(F)F)c4)c(Cl)c3)c21
How it was run: as §1

pinometostat = compound: CC(C)N(C[C@H]1O[C@@H](n2cnc3c(N)ncnc32)[C@H](O)[C@@H]1O)[C@H]1C[C@@H](CCc2nc3cc(C(C)(C)C)ccc3[nH]2)C1 [pinometostat]
How it was run: as §1

[2] = compound: CC(=O)c1cnc2ccc(-c3cc(Cl)c(O)c(Cl)c3)nc2c1N[C@H]1CC[C@H](CN(C)C)CC1
How it was run: as §1

ralimetinib = compound: CC(C)(C)Cn1c(N)nc2ccc(-c3[nH]c(C(C)(C)C)nc3-c3ccc(F)cc3)nc21 [ralimetinib]
How it was run: as §1

[3] = compound: CC(C)C1=C2N=C(C=C(N2N=C1)NCC3=CC=CC=C3)NCCCCCCN
How it was run: as §1

[4] = compound: CC(C)C[C@@H](C=O)NC(=O)[C@H](CC(C)C)NC(=O)[C@H](CC(C)C)NC(=O)OCc1ccccc1
How it was run: as §1

[5] = compound: CC1=C(C2=C(C=C1)C(=O)C3=CC=CC=C3N2CCCN)C
How it was run: as §1

[6] = compound: CC1=C(C(CC(=O)N1)C2=CC=C(C=C2)C(F)(F)F)C(=O)NC3=C(C=C4C(=C3)C=NN4)F
How it was run: as §1

Measured: log2 fold change

ANXA2 (UniProt H0YMT9)
inactive: IRAK-1-4 Inhibitor I 0.086 | ibrutinib -0.796 | [1] -0.422 | pinometostat -0.028

APAF1 (UniProt O14727)
inactive: IRAK-1-4 Inhibitor I 0.001 | [2] -0.153 | ralimetinib -0.07 | [1] -0.08 | [3] -0.156 | [4] 0.135 | pinometostat 0.066

ANGEL1 (UniProt Q9UNK9)
inactive: IRAK-1-4 Inhibitor I -0.042 | ibrutinib 0.062 | ralimetinib 0.332 | [4] 0.207 | pinometostat -0.019 | [5] 0.074

AP1B1 isoform 3 (UniProt Q10567)
inactive: IRAK-1-4 Inhibitor I -0.001 | [2] 0.021 | ralimetinib 0.097 | [1] -0.108 | [4] 0.125 | pinometostat -0.014 | [6] 0.022 | [5] 0.051

APH1A (UniProt Q96BI3)
inactive: IRAK-1-4 Inhibitor I 0.021 | ibrutinib 0.036 | [2] -0.076 | [3] -0.047 | pinometostat -0.056 | [5] -0.03

APTX (UniProt Q7Z2E3)
inactive: IRAK-1-4 Inhibitor I 0.008 | [2] 0.129 | [1] -0.057 | [3] -0.368 | pinometostat -0.038

APOBEC3F (UniProt Q8IUX4)
inactive: IRAK-1-4 Inhibitor I -0.139 | ibrutinib -0.057 | [2] -0.244 | ralimetinib -0.047 | [1] 0.161 | [4] 0.189 | pinometostat 0.154

ANKH (UniProt Q9HCJ1)
inactive: IRAK-1-4 Inhibitor I -0.053 | [2] -0.188 | ralimetinib 0 | [3] 0.169 | [4] -0.304 | pinometostat 0.047 | [6] -0.003

AREL1 (UniProt O15033)
inactive: [2] 0.031

APOA4 (UniProt P06727)
inactive: ibrutinib -0.048 | [2] -0.06 | ralimetinib -0.028 | [1] 0.089 | [4] 0.022 | [6] -0.056 | [5] -0.076

ANKRD26 (UniProt Q9UPS8)
inactive: [2] 0.071 | ralimetinib -0.076 | [4] 0.065 | [6] -0.015 | [5] 0.112

APH1B (UniProt Q8WW43)
inactive: [2] -0.009

ARHGEF18 (UniProt Q6ZSZ5)
inactive: ibrutinib -0.104 | [2] -0.047 | ralimetinib 0.27 | [1] 0.002 | [3] -0.285 | [4] 0.207 | [6] 0.249 | [5] 0.041

ANKRD13C (UniProt Q8N6S4)
inactive: [2] -0.144 | [1] 0.119 | [5] 0.173

ANKRD16 (UniProt Q6P6B7)
inactive: ibrutinib -0.194 | [1] -0.133 | [3] 0.069

ARHGEF10 (UniProt O15013)
inactive: ibrutinib -0.107

APOC3 (UniProt P02656)
inactive: ibrutinib -0.091 | [2] -0.045 | ralimetinib 0.032 | [1] 0.08 | [4] 0.135 | [6] 0.32 | [5] 0.184

APOL2 (UniProt J3KQL8)
inactive: ibrutinib 0.093 | [2] -0.005 | [1] -0.167 | [3] -0.304 | [6] -0.068 | [5] 0.017

ARHGAP22 isoform 2 (UniProt Q7Z5H3)
inactive: ralimetinib -0.003 | [4] 0.056 | [5] 0.17

ANKIB1 (UniProt Q9P2G1)
inactive: [6] -0.315

APLF (UniProt Q8IW19)
inactive: [2] -0.047

APOD (UniProt P05090)
inactive: [2] -0.08 | [3] 0.077 | [6] -0.562 | [5] 0.513

ANKRD46 (UniProt Q86W74)
inactive: ibrutinib -0.085 | [2] 0.037 | ralimetinib 0.041 | [1] 0.002 | [3] 0.123 | [4] 0.12 | [6] -0.314 | [5] 0.093

AP2S1 (UniProt M0QZ21)
inactive: [5] 0.139

ARHGAP25 isoform 4 (UniProt P42331)
active: [3] -0.961
inactive: ibrutinib -0.064 | [2] -0.16 | [1] -0.465 | [5] 0.066

AP1G2 (UniProt O75843)
inactive: ralimetinib -0.006 | [3] -0.303 | [4] -0.23

2 entries drawn at random from those above, as already listed:
AP2S1 (UniProt M0QZ21)
inactive: [5] 0.139

APOD (UniProt P05090)
inactive: [2] -0.08 | [3] 0.077 | [6] -0.562 | [5] 0.513

Remaining list, next part.

APP (UniProt P05067)
inactive: ralimetinib -0.042 | [3] 0.094 | [4] 0.174 | [6] -0.105 | [5] -0.128

ARID4B (UniProt Q4LE39)
inactive: [5] -0.096

ANKLE2 (UniProt Q86XL3)
inactive: IRAK-1-4 Inhibitor I 0.038 | pinometostat 0.127

ANKRD11 (UniProt Q6UB99)
inactive: ibrutinib 0.098 | ralimetinib -0.012 | [3] -0.216 | [4] 0.128 | [6] 0.165

AP5S1 (UniProt Q9NUS5)
inactive: [3] -0.162 | [6] -0.332

ARHGAP4 isoform 2 (UniProt P98171)
inactive: ibrutinib 0.026 | [2] -0.051 | ralimetinib 0.161 | [3] -0.067 | [4] -0.005 | [5] 0.062

ARHGAP21 (UniProt Q5T5U3)
inactive: ibrutinib 0.117 | ralimetinib 0.162 | [1] 0.148 | [4] 0.129 | [6] 0.089

APOL1 isoform 2 (UniProt O14791)
inactive: ibrutinib 0.163 | [6] -0.065 | [5] -0.258

ARHGAP5 (UniProt Q13017)
inactive: ibrutinib 0.069 | ralimetinib 0.17 | [1] -0.056 | [3] 0.169 | [4] -0.075 | [5] -0.17

ARID1B isoform 3 (UniProt Q8NFD5)
inactive: ibrutinib 0.082 | ralimetinib 0.056 | [4] 0.042

API5 isoform 1 (UniProt Q9BZZ5)
inactive: [2] 0.038 | [1] -0.091 | [6] -0.055 | [5] 0.018

APOC2 (UniProt P02655)
inactive: IRAK-1-4 Inhibitor I 0.089 | pinometostat 0.032 | [6] -0.034

APOBEC3B (UniProt Q9UH17)
inactive: IRAK-1-4 Inhibitor I -0.068 | ralimetinib 0.069 | [4] 0.124 | pinometostat 0.186 | [6] 0.088

APBA2 (UniProt Q99767)
inactive: [1] -0.213

ANKRD36 (UniProt A6QL64)
inactive: [1] -0.06 | [5] 0.147
